Source: PubChem BioAssay AID504834 (National Center for Advancing Translational Sciences (NCATS), 2011)
Out of some 320,000 compounds screened, about 22,000 (6.9%) were called active. Inconclusive results, whose numbers are uncertain, are shown with a selection of clear calls. The call rests on the fitted dose curve; in most records, active means well fitted inhibition curve with a large enough effect; inconclusive means small, poorly fitted or top-dose-only effect, or another doubt; inactive means no such curve, though single readings can be large or run the other way. A potency beside an inconclusive call is a rough fit, not a confirmed value.

Assay: Primary qHTS for delayed death inhibitors of the malarial parasite plastid, 96 hour incubation
Settings: P. falciparum luciferase reporter growth; series mostly up to 28.7 µM
Procedure, shortened: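 Two-generation exposure (96 h) targets delayed-death phenotype. Reporter parasites carrying integrated firefly luciferase, in red cells at 2% hematocrit and 0.05% parasitemia final, kept at 37 C, 5% CO2; luminescence loss indicates inhibition.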
Potency means the concentration at half of the fitted maximal effect.

SMILES	Potency
CCOC(=O)/C(C#N)=C/c1cccc([N+](=O)[O-])c1	inactive
CC(C)(C)C(=O)NC1CCN(C(=O)N2CCCC2)CC1	inconclusive: 11.7 µM [inhibitor, single point]
CCOC(=O)C1CCN(c2nc3ccccc3nc2C(C#N)C(=O)OCCOC)CC1 (configuration not stated)	inconclusive: 0.0033 µM [inhibitor, full curve, poor fit]
COCc1c(C(=O)NC(C)c2ccc(S(N)(=O)=O)cc2)oc2ccccc12 (configuration not stated)	inactive
Cc1ccc(NC(=O)C2C3C=CC4(CN(Cc5cccnc5)C(=O)C24)O3)cc1F (configuration not stated)	inconclusive: 18.5 µM [inhibitor, single point]
Cc1ccc(C)c(C(=O)COC(=O)CNS(=O)(=O)c2ccccc2)c1	inconclusive: 18.5 µM [inhibitor, single point]
Cc1cc(N2CCCC2=O)ccc1S(=O)(=O)NC1CCCCC1	inactive
COc1cccc(C(=O)NCC(=O)N/N=C/c2c(C)[nH]c3ccccc23)c1	inconclusive: 18.5 µM [inhibitor, single point]
Cc1ccc2nc(SCC(=O)NCc3ccc4c(c3)OCO4)nc(=O)n2c1	inconclusive: 3.7 µM [inhibitor, single point]
O=[N+]([O-])c1cc(-c2cnc3ccccc3n2)ccc1Cl	inactive
O=C(NCC(O)c1ccc([N+](=O)[O-])cc1)C1CCCCC1 (configuration not stated)	inconclusive: 0.522 µM [inhibitor, partial curve, poor fit]
Cc1ccc(S(=O)(=O)Nc2ccc(NC(=O)Nc3ccc(F)cc3F)cc2)cc1	inconclusive: 9.28 µM [inhibitor, single point]
CC(=O)c1cccc(NC(=O)CCc2nc3sc4c(c3c(=O)[nH]2)CCCC4)c1	inconclusive: 13.1 µM [inhibitor, partial curve, poor fit]
COc1ccccc1-c1nc(C(F)(F)F)c(OC)o1	inconclusive: 20.8 µM [inhibitor, single point]
COc1cc(/C=C/C(=O)c2ccc(NS(=O)(=O)c3ccc(C)cc3)cc2)cc(OC)c1O	inconclusive: 2.62 µM [inhibitor, partial curve]
O=C(O)CCN1C(=O)C2CCCCC2C1=O (configuration not stated)	active: 0.738 µM
CCOc1ccc(/C=C/C(O)=C2/C(=O)NC3(C)CC2c2ccccc2O3)cc1OC (configuration not stated)	inconclusive: 18.5 µM [inhibitor, single point]
O=C(N/N=C/c1sc(N2CCOCC2)nc1-c1ccccc1)c1cccc(S(=O)(=O)N2CCOCC2)c1	active: 2.08 µM
Cc1[nH]nc2c1C(c1cnn(C)c1)C(C#N)=C(N)O2 (configuration not stated)	inconclusive: 6.57 µM [inhibitor, partial curve, poor fit]
COc1ccccc1C(=O)NCCCNc1ccc([N+](=O)[O-])cc1	active: 13.1 µM
COc1cccc(NC(=O)CSc2nnc(Cn3c(=O)sc4ccccc43)n2C)c1	inconclusive: 4.15 µM [inhibitor, single point]
O=C1C=CC(=O)N1c1ccc(O)cc1	inactive
CCc1nc2sc3ccccc3c(=O)c2c(=O)n1Cc1ccco1	inconclusive: 18.5 µM [inhibitor, single point]
c1ccc(Nc2nc(NCc3ccco3)c3ccccc3n2)cc1	inconclusive: 0.465 µM [inhibitor, full curve, poor fit]

SMILES	Potency
Cn1c(Cn2c(=O)sc3ccccc32)nnc1SCC(=O)N1CCCC1	inconclusive: 13.1 µM [inhibitor, single point]
O=C(Nc1cc(S(=O)(=O)N2CCCCC2)ccc1N1CCOCC1)c1ccc(F)cc1	inconclusive: 7.38 µM [inhibitor, partial curve]
CC1CC(C)CN(S(=O)(=O)c2ccc(C(=O)OCC(=O)NCCN3C(=O)CSC3=O)cc2)C1 (configuration not stated)	inactive
O=C(CSc1nnc(-c2ccccc2Cl)o1)Nc1ccccn1	inactive
Cc1cc(C)n(C(=O)c2ccc([N+](=O)[O-])c(Cl)c2)n1	inconclusive: 4.15 µM [inhibitor, full curve, poor fit]
COc1ccc(OC)c(NC(=S)N2CCC(C(O)(c3ccccc3)c3ccccc3)CC2)c1	inconclusive: 2.33 µM [inhibitor, partial curve, poor fit]
C#CC(C)OC(=O)Nc1cnccc1C(F)(F)F (configuration not stated)	inconclusive: 0.0329 µM [inhibitor, full curve, poor fit]
CC(C)C(=O)Nc1ccc(S(=O)(=O)N2CC3CC(C2)c2cccc(=O)n2C3)cc1 (configuration not stated)	inconclusive: 2.08 µM [inhibitor, full curve, poor fit]
C[C@H](NC(=O)C1CCN(S(=O)(=O)c2ccccc2)CC1)C(=O)NCc1ccc(Cl)c(Cl)c1	inconclusive: 18.5 µM [inhibitor, single point]
CCOc1cc(-c2nc3ccccn3c2NCC2CCCO2)ccc1O (configuration not stated)	active: 11.7 µM
CC(O)c1nc2ccc(Cc3ccc4nc(C(C)O)[nH]c4c3)cc2[nH]1 (configuration not stated)	inconclusive: 9.28 µM [inhibitor, partial curve, poor fit]
CC(=O)NC(C(=O)c1ccccc1)N1CCCCC1 (configuration not stated)	inconclusive: 18.5 µM [inhibitor, single point]
COc1cc2oc3ccccc3c2cc1N(CC(=O)N1CCCCC1)S(=O)(=O)c1ccc(C)cc1	inconclusive: 9.28 µM [inhibitor, partial curve, poor fit]
CCc1ccc(NS(=O)(=O)c2cccc3nsnc23)cc1	inconclusive: 13.1 µM [inhibitor, partial curve]
CC(=O)c1ccc(NC(=O)Nc2ccc(Cl)cc2)cc1	inconclusive: 18.5 µM [inhibitor, single point]
C(=C\c1ccccc1)/C=N/Nc1nc2ccccc2[nH]1	active: 3.29 µM
Oc1ccc(/C=N\Nc2nncc(-c3ccccc3)n2)cc1	active: 2.33 µM
COc1ccccc1-c1nnc(SCC(=O)c2c(N)n(C3CC3)c(=O)[nH]c2=O)o1	inconclusive: 9.28 µM [inhibitor, partial curve]
O=S(=O)(Nc1ncccn1)c1ccccc1	inconclusive: 13.1 µM [inhibitor, single point]
COc1cc(C(=O)Oc2cccc(C(=S)N3CCOCC3)c2)cc(OC)c1OC	inactive
C=CCn1c(SCC(=O)c2c(N)n(C3CC3)c(=O)[nH]c2=O)nnc1-c1ccc(OC)cc1	inconclusive: 1.65 µM [inhibitor, full curve]
Cc1ccccc1NC(=O)N1CCCN(c2ccc(C#N)cn2)CC1	inconclusive: 18.5 µM [inhibitor, single point]
CCC(C)NC(=O)C(=O)NCc1ccccn1 (configuration not stated)	inactive
O=C(O)CC1(CC(=O)NCc2ccc(-c3cccs3)cc2)CCCCC1	inconclusive: 0.329 µM [inhibitor, partial curve, poor fit]

SMILES	Potency
CCc1ccc(CN(C(=O)COc2c(C)cccc2C)C2CCS(=O)(=O)C2)cc1 (configuration not stated)	inconclusive: 18.5 µM [inhibitor, single point]
COc1ccc(C(=O)CCC(=O)NC2=NCCS2)cc1	inactive
Cc1ccc2cc(CN(CCN3CCCC3)C(=O)Nc3ccccc3)c(=O)[nH]c2c1C	inconclusive: 18.5 µM [inhibitor, single point]
COC(=O)Cc1ccc(NC(=S)NCCO)cc1	inactive
O=C(NCCN1C(=O)S/C(=C\c2ccc(OC(F)F)cc2)C1=O)[C@@H]1CCCN1C(=O)c1cccs1	inconclusive: 18.5 µM [inhibitor, single point]
C=CCNc1nc(-c2c(C)nc3ncccn23)cs1	inactive
CC(C)CC(=O)N1CCN(Cc2ccc(C(F)(F)F)cc2)CC1	inactive
Cc1ccc2c(CN3CCCCC3C)cc(=O)oc2c1 (configuration not stated)	inactive
CC(Cc1ccccn1)NC(=O)c1ccc(OC2CCN(Cc3ccccn3)CC2)cc1 (configuration not stated)	active: 9.28 µM
NC(N)=N/N=C/c1cccc(Cl)c1Cl	active: 2.08 µM
Cn1c(=O)c2c(SCc3ccccn3)nc(CC(C)(C)C)nc2n(C)c1=O	inconclusive: 13.1 µM [inhibitor, single point]
CCN(c1ccc(NC(=O)CSCc2c(C)noc2C)cc1)C(C)C	inconclusive: 11.7 µM [inhibitor, partial curve]
O=C(CSC1=NS(=O)(=O)c2cc(Cl)ccc2N1)NCCc1ccccc1	inactive
NC(=O)/C=C/C(=O)Nc1ccc(Cl)cc1	inactive
CN(Cc1ccccc1)C(=O)c1cc2ccccc2o1	inactive
CCOc1ccc(S(=O)(=O)Nc2ccccn2)c2ccccc12	inconclusive: 2.33 µM [inhibitor, partial curve, poor fit]
CC1CN(C(=O)c2cccc(COc3ccccc3Cl)c2)CC(C)O1 (configuration not stated)	inconclusive: 0.294 µM [inhibitor, partial curve, poor fit]
C=CCNC(=O)C1CC(=O)N(c2ccc(OCC(=O)Nc3ccc(OC)cc3)cc2)C1 (configuration not stated)	inconclusive: 4.15 µM [inhibitor, single point]
COC(=O)CC1C(C(=O)OC)ON2OC(C(=O)OC)C(C(=O)OC)C12 (configuration not stated)	inactive
COC(C)(C)[C@H](O)COc1c2ccoc2cc2oc(=O)ccc12	inactive
C=C(c1ccccc1C)[n+]1ccccc1	active: 1.65 µM
COc1ccc(-c2cc(Nc3ccccc3NC(=O)C(F)(F)F)n(CCC#N)n2)cc1	inconclusive: 18.5 µM [inhibitor, single point]
Cc1cc(C)c(NC(=O)CS(=O)CC(=O)Nc2ccc(F)cc2F)c(C)c1 (configuration not stated)	inactive
COc1ccccc1C(=O)NC1CCCCCCC1	inconclusive: 18.5 µM [inhibitor, single point]
